From patent US12539326B2, “Methods for treating Alzheimer's disease using semaglutide” (Novo Nordisk A/S, priority 2019, dated 2026) come the findings set out here.

The data set can be described thus: Body weight and blood glucose in SAMP8 mice. In kind it is in vivo, mouse. Particulars: mean.

In the case of “N-epsilon26-[2-(2-{2-[2-(2-{2-[(S)-4-Carboxy-4-(17-carboxyheptadecanoylamino)butyrylamino] ethoxy}ethoxy)acetylamino]ethoxy} ethoxy)acetyl][Aib8,Arg34]GLP-1-(7-37) [semaglutide]”, the body weight (16 weeks of age, SEM 0.7 grams, vehicle 31.0 grams, no difference) stood at 29.2 grams. The “change in body weight from baseline” value (16 weeks of age, SEM 4.2%, vehicle 148.0%) amounted to 145.4%. This substance showed a blood glucose (SEM 2.2 mg/dL, vehicle 137.1 mg/dL, no difference) of 133.1 mg/dL.
